Laboratory results reported in PMC7075897.

What was measured:
[1] = biological target: T1, Usp fused to BioID2 through a 25 nm GS linker, marked with 3xFLAG (Drosophila melanogaster) (UniProt P20153); assay: proximity labelling; BioID2 fused to EcR or Usp, stably expressed in S2 cells; biotin 50 nM, 20E or DMSO for 14 h; nuclear extract, Streptavidin-Agarose precipitation, LC-MS/MS
T1 sequence: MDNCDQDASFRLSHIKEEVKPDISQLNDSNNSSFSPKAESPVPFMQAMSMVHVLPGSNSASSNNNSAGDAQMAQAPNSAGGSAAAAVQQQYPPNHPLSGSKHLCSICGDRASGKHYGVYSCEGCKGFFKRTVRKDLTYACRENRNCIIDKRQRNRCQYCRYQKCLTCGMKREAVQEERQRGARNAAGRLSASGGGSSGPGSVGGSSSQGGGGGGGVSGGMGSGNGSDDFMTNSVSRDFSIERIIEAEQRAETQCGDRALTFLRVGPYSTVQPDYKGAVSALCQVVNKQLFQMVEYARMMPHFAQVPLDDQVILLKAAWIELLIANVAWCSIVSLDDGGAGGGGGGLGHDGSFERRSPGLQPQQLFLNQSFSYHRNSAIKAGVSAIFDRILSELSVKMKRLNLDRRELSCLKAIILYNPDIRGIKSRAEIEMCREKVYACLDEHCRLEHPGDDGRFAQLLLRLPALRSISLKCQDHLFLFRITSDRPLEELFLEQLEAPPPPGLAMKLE

[2] = biological target: T2, EcR (isoform A) fused to BioID2 through a 25 nm GS linker, marked with 3xFLAG (Drosophila melanogaster) (UniProt P34021); assay: as above
T2 sequence: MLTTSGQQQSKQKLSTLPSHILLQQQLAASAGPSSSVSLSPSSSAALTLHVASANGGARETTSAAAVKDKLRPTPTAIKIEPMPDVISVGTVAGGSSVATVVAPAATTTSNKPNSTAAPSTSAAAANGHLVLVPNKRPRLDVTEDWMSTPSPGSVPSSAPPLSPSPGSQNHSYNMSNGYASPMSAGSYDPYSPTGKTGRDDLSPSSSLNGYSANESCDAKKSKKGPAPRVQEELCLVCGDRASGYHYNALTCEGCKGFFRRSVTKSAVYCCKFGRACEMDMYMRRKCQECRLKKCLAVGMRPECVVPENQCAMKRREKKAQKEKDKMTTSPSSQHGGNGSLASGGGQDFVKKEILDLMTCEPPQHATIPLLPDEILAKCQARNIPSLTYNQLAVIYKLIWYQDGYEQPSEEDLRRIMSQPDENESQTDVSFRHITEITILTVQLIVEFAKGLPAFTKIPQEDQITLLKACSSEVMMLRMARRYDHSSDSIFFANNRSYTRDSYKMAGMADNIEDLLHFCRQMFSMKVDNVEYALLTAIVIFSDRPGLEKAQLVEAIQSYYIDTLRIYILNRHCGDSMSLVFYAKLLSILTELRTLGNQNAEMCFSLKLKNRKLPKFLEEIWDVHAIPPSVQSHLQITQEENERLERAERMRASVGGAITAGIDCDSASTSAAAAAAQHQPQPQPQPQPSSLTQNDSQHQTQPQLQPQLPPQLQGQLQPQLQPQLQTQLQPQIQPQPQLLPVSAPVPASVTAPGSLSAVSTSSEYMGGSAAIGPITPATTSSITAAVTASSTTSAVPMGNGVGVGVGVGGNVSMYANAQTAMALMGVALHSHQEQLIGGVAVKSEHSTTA

[3] = biological target: T1, Usp fused to BioID2 through a 25 nm GS linker, marked with 3xFLAG (Drosophila melanogaster); assay: proximity labelling; BioID2 fusions or BioID2 alone in S2 cells, 20E or DMSO 14 h; streptavidin precipitates of nuclear lysates analysed by western blot
[4] = biological target: T2, EcR (isoform A) fused to BioID2 through a 25 nm GS linker, marked with 3xFLAG (Drosophila melanogaster); assay: as above

Measured: binding

B1: NELF A (protein, UniProt Q86NP2 1-1251)
chain: MANVRDSDTSLWLHNKLGTSNDSWINGSICSQLNKEVLRNIKECFPDLQTQVKLKLLLSFLHIPRRLVEEWKAELEEVIEVAGLDSELWVSMLAETMKTFPATSSLNTEISDYEDTRPIFIDMVNDLRKLVTKHSDLGMLPLECQYLNKNALISVVGQQPAPVKHFTLKRKPKSAQLRTELLHKSADAQSSLKKASAPTIPLRSRGMPRKMTDTTPLKGIPSRMPTTGFRSATVPGNAAQRPNLSRTPAGRKDGGIKLIEFTEQPLGYAAAKKRKREQQLEEQQKKQEQKQQQAAAAAAAAATAAASNAGDSSPTDAATASGGETPVTPTSANNSFEIKMEPQQLNQSAGSLEEPQDDEMSGKANMECDIETPEYATATLDFAQATSTSVADGQPGKPAVETKLKTPRTPKSAAKLNNNNNNNNNNSFNHTPKRIKQEIEIKSEEIIVPASIKLEKIETSPSTQRVSIQQQPPSLVQRTPHLLIRSSPQKRQNNGATTSAGTTTTTVGNTTIKMEKLDIKPMIRATGVSPSTSAGTTTTLLTPQQLRQAANPLANLPNNISVKITSAKAKAAAAAAATSSGSQTQSQQPQTLQVQQAPQQSHPPLLINSSTPVILASSPSAQRAKALALPSSSTSATTTTTIPSQAIKTMPLSQLKTATNSGPVIISQTIIQPAKRAQQQAGTSSAAAASQQQQQQQSQQQLLHQQIQQQTQQQAQLPQQPQQQQTQYILATPQQQPQQIQQQQQQQQPILPTLTSFSHSRPMPQTTTLYQATTPSGSGQTPTKILLKTSGSSSVVMTPLRQAQPQQATAVVSSNPPPLVATSAAVVSPGQTTLNIQNVQLPNRPVTIQPASQAAQQQHMQAQLQQQQPHPQHTIVANTTATQQPKLSQVLMQPTAAVGTSGVSALNVSPTSGKNKTIILTQKGVILRNIGGDMYQQIPISNVGNMQGLGGTTLMTTTAGPPSLVKTTPSSGVQLQQQQSGKQILPTLIPTSSLGGQHVIVQQQQPTNVIGNSQQQTIIRPVMTNVGGGLTTLPQGLTLIQRPGQQPQLVQVQAAPGSTQRTIITQSNTAAAASQQQPRQQQQQILVQHKPAPTLQQRLVTSTTSGGQGQQGNPNAGLPRTVQVQVQAQQQQQPQQQQATQQQSQQAPQRRGLSLSNEHVHKAHEMFRKANRVSRPDKALILGFMAGLRENPRPNNENVLVIKLGETEEKVQQDNGHTALCLVESHIRLDYNTGEWKTFQNYRLQDQSAAS
binds: [1] | [2] | [3] | [4]

These are yes or no findings as the source states them, for the method shown. In cells and extracts the contact can be indirect. A yes stands for co-enrichment or nearness to the bait. Other partners may have been found. Tags and fused reporters may be left off the sequences shown.
